Assay results published in publication PMC10893700.
Numbering of substitutions follows the chain as printed. These are yes or no findings as the source states them, for the method shown. Binding seen in cells or lysates may run through a third protein. Some entries that bind do so weakly or less than the wild type. Sequences can lack the tags named with a protein.

Chains of the proteins cited; added tags and fusions are not shown. Residues count along the entry.
UniProt Q07021, residues 74-282: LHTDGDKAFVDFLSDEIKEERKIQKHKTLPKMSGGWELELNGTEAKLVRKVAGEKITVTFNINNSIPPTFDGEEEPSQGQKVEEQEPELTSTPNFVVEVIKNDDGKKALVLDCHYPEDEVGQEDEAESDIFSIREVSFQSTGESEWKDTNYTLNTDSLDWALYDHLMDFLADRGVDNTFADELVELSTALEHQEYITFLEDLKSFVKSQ

What was measured:
Assay in all cases: co-IP; lysate of about 3 x 10^6 Hela cells stably expressing hCHCHD2-MYC, RIPA lysis buffer with protease inhibitor, EZview Red Anti-c-Myc Affinity Gel, 2 h at 4 °C; Western blot for p32; n = 3
[1] = target: T1, hCHCHD2-Arg145Gln-MYC (Hela cells) (human) (UniProt Q9Y6H1)
T1 sequence: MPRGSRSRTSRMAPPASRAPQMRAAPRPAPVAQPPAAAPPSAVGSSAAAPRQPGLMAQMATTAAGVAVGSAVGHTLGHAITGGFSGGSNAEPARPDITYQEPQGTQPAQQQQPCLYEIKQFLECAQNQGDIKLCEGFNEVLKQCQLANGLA

[2] = target: T2, hCHCHD2-Thr61Ile-MYC (Hela cells) (human) (UniProt Q9Y6H1)
T2 sequence: T1 sequence with T61I, Q145R

[3] = target: T3, wild type hCHCHD2-MYC (Hela cells) (human) (UniProt Q9Y6H1)
T3 sequence: T1 sequence with Q145R

Measured: binding

p32 (Hela cells) (from UniProt Q07021 74-282)
binds: all assays above
